Test results from paper PMC4459967.
Results are given in words; binding and its absence hold for the method and conditions named. In cells and extracts the contact can be indirect. Here binding means that the protein was enriched with, or labelled near, the bait; the list need not be complete. Sequences can lack the tags named with a protein.

Experiments:
Assay in all cases: affinity purification with mass spectrometry; anti-Myc (MMS19-Myc) or anti-Flag (CIA1-Flag, CIA2-Flag) antibody-conjugated beads on extracts of flowers or seedlings of transgenic plants; CIA1-Flag and CIA2-Flag in the wild-type background, also done in the mms19 mutant background; lysis buffer 50 mM Tris-HCl pH 7.6, 150 mM NaCl, 5 mM MgCl2, 10% glycerol, 0.1% NP-40, 0.5 mM DTT; 4 °C; wild-type plants as control
[1] = molecular target: T1, MMS19-Myc (Arabidopsis thaliana) (UniProt Q0WVF8)
T1 sequence: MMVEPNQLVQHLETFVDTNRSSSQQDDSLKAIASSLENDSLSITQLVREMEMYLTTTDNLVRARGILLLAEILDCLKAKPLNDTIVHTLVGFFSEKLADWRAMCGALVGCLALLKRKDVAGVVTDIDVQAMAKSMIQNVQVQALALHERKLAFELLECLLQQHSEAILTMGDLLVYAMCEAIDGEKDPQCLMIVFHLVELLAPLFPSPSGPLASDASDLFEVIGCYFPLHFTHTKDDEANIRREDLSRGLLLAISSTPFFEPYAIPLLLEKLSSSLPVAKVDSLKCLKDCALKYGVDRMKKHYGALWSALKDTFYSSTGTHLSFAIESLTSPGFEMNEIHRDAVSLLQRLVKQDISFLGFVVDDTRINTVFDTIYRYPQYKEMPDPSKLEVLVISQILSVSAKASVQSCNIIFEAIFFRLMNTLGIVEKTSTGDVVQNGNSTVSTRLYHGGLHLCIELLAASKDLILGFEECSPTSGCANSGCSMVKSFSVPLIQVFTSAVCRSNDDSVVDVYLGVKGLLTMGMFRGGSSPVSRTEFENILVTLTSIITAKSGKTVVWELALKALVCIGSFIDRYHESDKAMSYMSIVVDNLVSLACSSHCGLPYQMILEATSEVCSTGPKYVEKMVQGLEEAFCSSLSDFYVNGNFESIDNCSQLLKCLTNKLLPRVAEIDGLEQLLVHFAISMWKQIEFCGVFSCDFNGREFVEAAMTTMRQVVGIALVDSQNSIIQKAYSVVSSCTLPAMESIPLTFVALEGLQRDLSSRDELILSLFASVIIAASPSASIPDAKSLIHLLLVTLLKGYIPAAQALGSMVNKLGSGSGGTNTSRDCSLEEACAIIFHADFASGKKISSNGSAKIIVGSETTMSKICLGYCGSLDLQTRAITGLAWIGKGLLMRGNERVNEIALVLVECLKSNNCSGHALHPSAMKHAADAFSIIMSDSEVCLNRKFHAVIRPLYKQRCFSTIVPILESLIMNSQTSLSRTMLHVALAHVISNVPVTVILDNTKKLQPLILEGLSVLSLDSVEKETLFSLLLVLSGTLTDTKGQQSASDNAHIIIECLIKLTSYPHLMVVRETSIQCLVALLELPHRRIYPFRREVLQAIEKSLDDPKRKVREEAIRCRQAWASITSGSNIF

[2] = molecular target: T2, CIA2-Flag (Arabidopsis thaliana) (UniProt Q9C9G6)
T2 sequence: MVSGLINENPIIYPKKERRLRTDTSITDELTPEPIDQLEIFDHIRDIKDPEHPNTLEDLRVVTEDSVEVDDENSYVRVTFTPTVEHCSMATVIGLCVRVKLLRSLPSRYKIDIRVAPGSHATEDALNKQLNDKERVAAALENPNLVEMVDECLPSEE

[3] = molecular target: T3, CIA1-Flag (Arabidopsis thaliana) (UniProt O80990)
T3 sequence: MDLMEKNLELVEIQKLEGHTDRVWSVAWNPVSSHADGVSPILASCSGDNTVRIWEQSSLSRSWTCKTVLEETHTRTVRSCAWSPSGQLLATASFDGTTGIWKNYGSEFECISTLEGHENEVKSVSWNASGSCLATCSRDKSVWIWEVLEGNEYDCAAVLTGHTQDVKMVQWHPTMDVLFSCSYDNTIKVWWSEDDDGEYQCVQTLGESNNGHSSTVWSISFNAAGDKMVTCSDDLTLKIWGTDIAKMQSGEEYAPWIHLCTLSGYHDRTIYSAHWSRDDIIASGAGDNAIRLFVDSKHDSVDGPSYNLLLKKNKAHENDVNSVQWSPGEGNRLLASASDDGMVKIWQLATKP

B1: CIA1 (protein, UniProt O80990 1-352)
chain: T3 sequence
binding [1]: binds

B2: MMS19 (protein, UniProt Q0WVF8 1-1134)
chain: T1 sequence
binding [2]: binds
binding [3]: binds

B3: AT3G50845 (protein, UniProt A8MR89 1-154)
chain: MTLGLINANPVVQAKKEGLVRREDQYRDDGVDPLEIYDYVRDIRDPEHPYTLEQLRVVSEESVTVDDKLDRILITFTPTIQHCSMANIIGLCLRAKLKECLQLHYKVDIRVSPGSHADEVSVNKQLNDKERVVAALENPNLRQLVDECIYSDEI
binding [3]: binds

B4: CIA2/AE7 (protein, UniProt Q9C9G6 1-157)
chain: T2 sequence
binding [1]: binds

B5: NAR1 (protein, UniProt Q94CL6 1-474)
chain: MSEKFSPTLRLGDLNDFIAPSQACVISLKDSKPIVKKSDRPQVVIAPKQQLEPVKISLKDCLACSGCITSAETVMLEKQSLDEFLSALSKGKDVVVSVSPQSRASLAVHYDISPLQVFKKLTTFLKSLGVKAVFDTSCSRDLVLIESCNEFVSRYKQANSDDGENSQSPLPVLSSACPGWICYAEKQLGSYVLPYVSSVKSPQQAIGAAIKHHLCQALGLRLHEVYHVTVMPCYDKKLEAARDDFVFDDGTQDNGDLKLTEVDSVLTTGEIMDLIKLKGVDFKDLEESPLDRVLTNVTEEGDLYGVAGSSGGYAETIFRHAAKALFGQTIEGPLEFKTLRNSDFREVTLQLEGKTVLKFALCYGFQNLQNIVRRVKTRKCDYQYVEIMACPAGCLNGGGQIKPKTGQSQKELIHSLEATYMNDTTLNTDPYQNPTAKRLFEEWLKEPGSNEAKKYLHTQYHPVVKSVTSQLNNW
binding [2]: binds
binding [1]: binds

B6: AT5G63960, catalytic subunit of DNA polymerase δ (protein, UniProt Q9LVN7 1-1095)
chain: MNRSGISKKRPPPSNTPPPAGKHRATGDSTPSPAIGTLDDEFMMEEDVFLDETLLYGDEDEESLILRDIEERESRSSAWARPPLSPAYLSNSQSIIFQQLEIDSIIAESHKELLPGSSGQAPIIRMFGVTREGNSVCCFVHGFEPYFYIACPPGMGPDDISNFHQSLEGRMRESNKNAKVPKFVKRIEMVQKRSIMYYQQQKSQTFLKITVALPTMVASCRGILDRGLQIDGLGMKSFQTYESNILFVLRFMVDCDIVGGNWIEVPTGKYKKNARTLSYCQLEFHCLYSDLISHAAEGEYSKMAPFRVLSFDIECAGRKGHFPEAKHDPVIQIANLVTLQGEDHPFVRNVMTLKSCAPIVGVDVMSFETEREVLLAWRDLIRDVDPDIIIGYNICKFDLPYLIERAATLGIEEFPLLGRVKNSRVRVRDSTFSSRQQGIRESKETTIEGRFQFDLIQAIHRDHKLSSYSLNSVSAHFLSEQKEDVHHSIITDLQNGNAETRRRLAVYCLKDAYLPQRLLDKLMFIYNYVEMARVTGVPISFLLARGQSIKVLSQLLRKGKQKNLVLPNAKQSGSEQGTYEGATVLEARTGFYEKPIATLDFASLYPSIMMAYNLCYCTLVTPEDVRKLNLPPEHVTKTPSGETFVKQTLQKGILPEILEELLTARKRAKADLKEAKDPLEKAVLDGRQLALKISANSVYGFTGATVGQLPCLEISSSVTSYGRQMIEQTKKLVEDKFTTLGGYQYNAEVIYGDTDSVMVQFGVSDVEAAMTLGREAAEHISGTFIKPIKLEFEKVYFPYLLINKKRYAGLLWTNPQQFDKMDTKGIETVRRDNCLLVKNLVTESLNKILIDRDVPGAAENVKKTISDLLMNRIDLSLLVITKGLTKTGDDYEVKSAHGELAERMRKRDAATAPNVGDRVPYVIIKAAKGAKAYERSEDPIYVLQNNIPIDPNYYLENQISKPLLRIFEPVLKNASKELLHGSHTRSISITTPSNSGIMKFAKKQLSCVGCKVPISNGTLCASCKGREAELYCKNVSQVAELEEVFGRLWTQCQECQGSLHQDVLCTSRDCPIFYRRMKAQKDMAVARQQLDRWSF
binding [1]: binds
